PubChem BioAssay AID1487 (National Center for Advancing Translational Sciences (NCATS), 2009)
Several values for one entry are separate records, joined by “and”; a condition that tells them apart may be missing. Equal values may be shown once. Some of the results follow. The main result of the screen is listed elsewhere. These columns were measured beside it and carry no call. Compounds called inactive in the main read-out are mostly missing here. Words in brackets tell the shape of the fitted curve; partial curves, single points and poor fits give uncertain potencies.

Experiment: qHTS Assay for Modulators of Lamin A Splicing
Conditions: HeLa LMNA splicing GFP/RFP minigene ratio, 48 h
Outline: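 Read-out is the ratio of GFP to DsRed2 object intensity, acquired by 488 nm laser-scanning cytometry on HeLa lamin A-EGFP minigene reporter cells. Compound incubation 48 hrs at 37 °C in Opti-MEM with 2% FBS; DMSO 0.5% final.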

[1] = measured here: GFP splicing reporter channel
[2] = measured here: RFP viability control channel

Row | Structure (SMILES) | AC50 [1] | AC50 [2]
1 | COc1ccc(NC(=O)CCc2c(C)nn(-c3ccc(N4CCCCC4)nn3)c2C)cc1Cl | 12.6 µM [falling, partial curve, poor fit] | 
2 | CC1CCN(CCOCCOc2ccccc2-c2ccccc2)CC1 |  | 0.447 µM [rising, full curve]
3 | O=C(NC(=S)NC(c1ccccc1)c1ccncc1)c1ccccc1 (configuration not stated) |  | 35.5 µM [rising, single point]
4 | CCc1nnc(NC(=O)C2c3ccccc3Oc3ccccc32)s1 |  | 11.2 µM [rising, partial curve]
5 | Cc1cc(C)n(Cc2ccc(C(=O)Nc3cccc(Br)c3)o2)n1 | 7.94 µM [rising, partial curve, poor fit] | 11.2 µM [rising, single point]
6 | Cc1nn(Cc2ccc(Cl)c(Cl)c2)c(C)c1NC(=O)c1cc(CC(C)C)on1 |  | 12.6 µM [rising, partial curve, poor fit]
7 | CCCC(c1nnnn1CCC(C)C)N1CCC(C(N)=O)CC1 (configuration not stated) | 15.8 µM [falling, single point] | 0.708 µM [falling, single point]
8 | Cc1cc(C(=O)CSc2nnnn2C)c(C)n1-c1cccc(F)c1 | 17.8 µM [rising, partial curve] | 35.5 µM [rising, single point]
9 | Cc1cccc(CN2C(=O)c3ccccc3Sc3ccc(C(=O)NC4CCCCC4)cc32)c1 |  | 35.5 µM [rising, single point]
10 | C=CCn1c(-c2csc(-c3ccccc3)n2)n[nH]c1=S | 5.01 µM [rising, full curve, poor fit] | 7.08 µM [rising, partial curve, poor fit]
11 | O=C(Nc1ccc2nc(SCC(=O)N3CCOCC3)sc2c1)c1cccc(Br)c1 | 0.316 µM [falling, partial curve, poor fit] | 
12 | Cc1cccc(CNC(=O)C2CCC(CNS(=O)(=O)c3ccc4c(c3)CCCC(=O)N4)CC2)c1 (configuration not stated) | 15.8 µM [falling, partial curve, poor fit] | 
13 | CCc1nc(N2CCN(C(=O)c3ccccc3)CC2)c(C#N)c2c1COC(C)(C)C2 |  | 31.6 µM [rising, single point]
14 | O=C(O)/C=C/C(=O)Nc1ccc(O)cc1 | 20 µM [rising, partial curve, poor fit] | 
15 | Cc1ccccc1Cc1c(C)nc2c(C(=O)NCc3ccc4c(c3)OCO4)cnn2c1C | 5.62 µM [rising, single point] | 5.62 µM [rising, single point]
16 | CN(CCC#N)C(=O)COC(=O)c1ccc2[nH]c3c(c2c1)CCCC3 | 12.6 µM [falling, partial curve, poor fit] | 
17 | O=C(NCc1cccs1)Nc1cc(Cl)ccc1Cl |  | 5.01 µM [rising, full curve, poor fit]
18 | CC(C(=O)c1ccc(-c2ccccc2)cc1)[n+]1ccccc1 (configuration not stated) | 12.6 µM [rising, single point] | 22.4 µM [rising, single point]
19 | CC1=NN(c2ccccc2)C(=O)/C1=C\c1ccc(Br)s1 |  | 25.1 µM [rising, single point]
20 | O=C(CSC1=NCCS1)Nc1ccc(S(=O)(=O)N2CCCCCC2)cc1 |  | 7.08 µM [rising, partial curve, poor fit]
21 | Fc1ccc(C2=CSC3=NCCN23)cc1 | 0.00708 µM [rising, full curve] | 0.00501 µM [rising, full curve, poor fit]
22 | COc1ccc(-c2cnc(C)o2)cc1S(=O)(=O)Nc1ccc(NC(C)=O)cc1 | 0.02 µM [rising, full curve, poor fit] | 
23 | COC(=O)c1c(NC(=O)CN(c2ccc(C)c(C)c2)S(C)(=O)=O)sc2c1CCCC2 |  | 8.91 µM [rising, partial curve, poor fit]
24 | O=C1CC(N2CCN(c3cccc(C(F)(F)F)c3)CC2)C(=O)N1c1ccccc1F (configuration not stated) | 12.6 µM [rising, partial curve] | 
25 | CC(C)=CC(=O)Nc1c(C)cc(C)cc1Cl | 0.398 µM [rising, full curve] | 0.2 µM [rising, full curve, poor fit]
26 | COc1ccc(NS(=O)(=O)c2ccc(N3CCOCC3)c(NC(=O)c3cccc(F)c3)c2)cc1 | 2.51 µM [rising, full curve] | 6.31 µM [rising, partial curve]

Row | Structure (SMILES) | AC50 [1] | AC50 [2]
27 | CO/N=C/C(=N\Nc1ccc(C)cc1)C(=O)c1ccc(OC)cc1 | 35.5 µM [falling, single point] | 3.55 µM [falling, partial curve]
28 | Cc1cccc(C)c1Nc1nnc(SCc2nc3ccccc3s2)s1 | 20 µM [rising, single point] | 11.2 µM [rising, partial curve]
29 | CCc1nnc(NC(=O)c2csc3c2CCC(C)C3)s1 (configuration not stated) | 0.282 µM [rising, full curve, poor fit] | 5.62 µM [falling, single point]
30 | O=C(O)c1cc(NCc2c(F)cccc2Cl)ccc1N1CCOCC1 |  | 11.2 µM [rising, single point]
31 | Cc1ccc(NC2=Nc3ccccc3N3C2=Nc2c(c(C)nn2-c2ccccc2)C3c2ccc(O)c(O)c2)cc1 (configuration not stated) | 0.562 µM [falling, single point] | 0.0355 µM [falling, single point]
32 | COc1ccc(NC(=O)COC(=O)C23CC4CC(CC(Cl)(C4)C2)C3)c(OC)c1 | 0.00316 µM [falling, full curve, poor fit] | 0.00316 µM [falling, full curve, poor fit]
33 | COc1ccc(CN(C(=S)Nc2ccccc2)C2CC(=O)N(c3ccc(Cl)cc3)C2=O)cc1 (configuration not stated) | 22.4 µM [falling, single point] | 25.1 µM [falling, single point]
34 | COc1ccc(/C=C(\C#N)C(=O)NCCCn2ccnc2)cc1 | 7.94 µM [rising, partial curve] | 7.94 µM [rising, partial curve]
35 | S=C(NCc1ccco1)N/N=C/c1ccccc1Cl |  | 14.1 µM [rising, partial curve]
36 | O=C(COC(=O)/C=C/c1ccc2c(c1)OCO2)Nc1ccccc1 | 14.1 µM [falling, single point] | 
37 | COc1ccccc1NC(=O)c1ccc(-n2cccn2)c([N+](=O)[O-])c1 | 35.5 µM [falling, single point] | 
38 | CC(C)c1cc(C(=O)N2CCN(C(c3ccccc3)c3ccccc3)CC2)no1 | 11.2 µM [rising, partial curve] | 17.8 µM [rising, single point]
39 | Cc1cc(C)cc(NC(=O)CSc2nc3c(c(=O)[nH]2)CN(Cc2ccc(F)cc2)CC3)c1 | 20 µM [falling, partial curve, poor fit] | 35.5 µM [falling, single point]
40 | CC(=O)c1ccc(N2CCN(S(=O)(=O)c3ccc(-c4coc(C)n4)cc3)CC2)cc1 | 3.98 µM [rising, partial curve, poor fit] | 6.31 µM [rising, partial curve, poor fit]
41 | N[C@@H](Cc1cc(I)c(Oc2ccc(O)c(I)c2)c(I)c1)C(=O)O | 35.5 µM [falling, single point] and 10 µM [rising, single point] | 2.82 µM [rising, partial curve, poor fit] and 11.2 µM [rising, partial curve]
42 | Cc1ccccc1COC[C@H](CC(C)C)N1CCN(C(=O)c2cccc(C(F)(F)F)c2)CCC1=O |  | 14.1 µM [rising, partial curve]
43 | CCOC(=O)Cc1csc(NC(=S)NC(=O)C(C)(C)C)n1 | 14.1 µM [rising, single point] | 31.6 µM [rising, single point]
44 | COc1cc(NC(=O)CN2CCN(c3ccc(F)cc3)CC2)cc(OC)c1 | 5.62 µM [rising, partial curve] | 2.51 µM [rising, partial curve, poor fit]
45 | O=c1c(F)cn(C2CCCO2)c(=O)n1Cc1ccc(Cl)cc1 (configuration not stated) | 0.0224 µM [rising, full curve, poor fit] | 
46 | COc1ccc(C2(O)CCN(CCCCOc3ccccc3)CC2)cc1 |  | 35.5 µM [rising, single point]
47 | CN(C)c1ccnc(N(Cc2ccccc2)Cc2ccccc2)c1C#N |  | 12.6 µM [rising, single point]
48 | CC1=CC2=NC(=O)/C(=C\c3ccc(-c4cccc(Cl)c4)o3)C(=N)N2O1 |  | 3.55 µM [rising, full curve, poor fit]
49 | O=C(NC1CCCC1)C(c1ccccc1F)N(C(=O)Cc1cccs1)c1ccc2c(c1)OCCO2 (configuration not stated) |  | 12.6 µM [rising, partial curve, poor fit]
50 | CCN1CCN(C(=S)Nc2cccc(C(F)(F)F)c2)CC1 | 11.2 µM [rising, partial curve] | 12.6 µM [rising, partial curve]
51 | O=C(/C=C/c1ccccc1Cl)N1CCC(c2nc3ccccc3o2)CC1 | 8.91 µM [falling, partial curve, poor fit] | 0.0631 µM [falling, full curve, poor fit]
52 | Nc1ncn([C@H]2O[C@@H](CO)[C@@H](O)[C@@H]2O)c(=O)n1 | 0.708 µM [falling, full curve] | 0.447 µM [falling, full curve]

Another view of part of the listing above.
CCOC(=O)Cc1csc(NC(=S)NC(=O)C(C)(C)C)n1
  AC50 [1]: 14.1 µM [rising, single point]; AC50 [2]: 31.6 µM [rising, single point]
COc1cc(NC(=O)CN2CCN(c3ccc(F)cc3)CC2)cc(OC)c1
  AC50 [1]: 5.62 µM [rising, partial curve]; AC50 [2]: 2.51 µM [rising, partial curve, poor fit]
O=c1c(F)cn(C2CCCO2)c(=O)n1Cc1ccc(Cl)cc1 (configuration not stated)
  AC50 [1]: 0.0224 µM [rising, full curve, poor fit]
